Our source for the T/C values is PubChem BioAssay AID258 (DTP/NCI, 2004).

This test relates to CD2F1 mice, L1210 leukemia sc, survival T/C. Briefly: NCI In Vivo Anticancer Drug Screen. Data for tumor model L1210 Leukemia (subcutaneous) in CD2F1 (CDF1) mice. Particulars: T/C endpoint: median survival time, schedule: Q01DX009 (ip), vehicle: saline, higher T/C = longer survival. As for the experimental part:
The antitumor activity of compounds was measured in mice bearing transplantable tumors. Survival or tumor size were measured and the results are expressed as the measurement made in the treated group (T) divided by the measurement made in the vehicle treated control group (C). The tumor model used in this assay is L1210 Leukemia (subcutaneous) in CD2F1 (CDF1) mice

The list is a part of this screen's results and no random one: its compounds were picked by chemical class. Other doses and runs of a compound may be missing. T/C is the treated group as % of the vehicle group. For survival time, this PubChem deposit counts one and a half times the control or more as active, and values a quarter to a half above the control carry no call in these data; other NCI protocols may use other cut-offs. Schedule codes are those of the source, taken here to give the interval after Q, in days (D) or hours (H), and the number of doses after X.

For the compound `CN(CCCl)CCCl`, the T/C was 98 % of control (dose: 0.12 mg/kg/injection), 102 % of control (dose: 0.25 mg/kg/injection) and 102 % of control (dose: 0.5 mg/kg/injection).
